One molecule from patent US5047244A, “Mucoadhesive carrier for delivery of therapeutical agent” (priority 1988, dated 1991) can be followed below.

The data set is described as follows: In vitro therapeutic agent release (USP Dissolution Test Method II, 0.05M isotonic phosphate buffer pH 6.0 with 30 weight percent PEG 400). The data set is classed as physicochemical. The conditions noted are these: Example 11 carrier; for In vitro release of nifedipine: 10 mg nifedipine. On the procedure:
Therapeutic agent release studies were conducted using an Erweka dissolution test assembly in compliance with Dissolution Test Method II as described in The United States Pharmacopeia, 24th revision (USP XXIV). Five hundred milliliters of a 0.1M phosphate buffer dissolution fluid was maintained at about 37° C. (about 100° F.) and the […] was rotated at 50 revolutions per minute (rpm). At predetermined time points, samples of approximately 3 milliliters of the test medium were withdrawn from the flasks and immediately replaced with an equivalent volume of blank buffer. Analysis of the samples was performed by ultraviolet spectrophotometry. […] The time to achieve 20%, 50% and 80% by weight dissolution of the piroxicam was estimated from a linear plot of percent dissolved versus time.
Therapeutic agent release testing was conducted by the USP Dissolution Test Method II. The dissolution medium chosen was 500 ml of a 0.05M isotonic phosphate buffer having a 6.0 pH with 30 weight percent PEG 400.
An equivalent of 20 mg of albuterol in a mucosal composition of a albuterol:PEG 8000 weight in a ratio of 1:2 was included in each carrier. […] Plots of weight percent therapeutic agent released versus time were constructed and the drug release parameter T (in hours) for a given weight and percent drug released was calculated from the plots.

On to `COC(=O)C1=C(C)NC(C)=C(C(=O)OC)C1c1ccccc1[N+](=O)[O-]` [nifedipine], for which the “In vitro release of nifedipine” value runs as follows: (1 hour) 4 weight percent; (2 hours) 6.5 weight percent; (4 hours) 10.7 weight percent; (8 hours) 21.0 weight percent; (time not printed (between 4 and 8 hours)) 18.7 weight percent. The Order of release result (nifedipine) is given as “zero order therapeutic agent release”.
